PubChem BioAssay AID504804 – Drosophila RNAi Screening Center, 2011

Screen: 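Knock-downs shielding fly cells from apoptosis caused by DNA damage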 (primary screen)
Cells: Drosophila Kc cells
Knock-down reagent: long dsRNA against Drosophila genes, 0.5 µg dsRNA per well
Time to read-out: 96 h (48 h knock-down, then 48 h drug)
Conditions: doxorubicin 5 µg/ml for 48 h, added 48 h after dsRNA
Measured: 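Viability measured as cellular ATP by luminescence after 48 h knock-down then 48 h doxorubicin at 5 µg/ml; unnormalised plate counts for each replicate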
Reading the numbers: raw ATP luminescence: higher = more viable cells, protection from doxorubicin
Hit rule: 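Active when both duplicate wells lie at least 2 SD above the plate mean and protection is confirmed by rescreening and independent dsRNAs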
The deposit covers about 19,000 reagents; below is a random part of those with a known target gene and a result. In the full data, 47 (0.25%) are marked active. 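Signals are raw, not normalised; exact z-scores behind calls not deposited; actives needed confirmation, so some wells reaching 2 SD are inactive.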 Entries without a mark were called inactive.

Target gene	amplicon	raw ATP luminescence, replicate 1	raw ATP luminescence, replicate 2
CG4168	DRSC01446	2.72e5	2.50e5
CG4168	DRSC01447	2.67e5	2.21e5
CG4168	DRSC01933	93307	67553
isoQC (iso Glutaminyl cyclase)	DRSC11790	66070	76113
Bx (Beadex)	DRSC19350	2.16e5	1.63e5
CG30054	DRSC05354	87780	92360
CG12640	DRSC17847	3.93e5	3.89e5
CG9839	DRSC16574	56407	24007
cerv (cervantes)	DRSC19681	3.67e5	3.09e5
CG7220	DRSC05235	1.15e5	1.14e5
CG7220	DRSC07018	29717	60360
CG14107	DRSC10110	64847	74800
CG9616	DRSC16518	93730	79610
Bdp1 (B double prime 1)	DRSC03192	93777	69800
APP-BP1 (beta-Amyloid precursor protein binding protein 1)	DRSC10920	80727	1.62e5
BBS1 (Bardet-Biedl syndrome 1)	DRSC10196	1.93e5	1.93e5
Sdr (Secreted decoy of InR)	DRSC15517	62497	30677
Osi20 (Osiris 20)	DRSC12568	66823	48670
CG3527	DRSC18307	38640	46850
or (orange)	DRSC04329	42750	60000
CG3045	DRSC04331	75880	57587
se (sepia)	DRSC10713	81630	96887
fwd (four wheel drive)	DRSC08580	60407	67677
wntD (wnt inhibitor of Dorsal)	DRSC16423	88380	57360
kni (knirps)	DRSC11891	54640	68423
Aldh7A1 (Aldehyde dehydrogenase 7 family member A1)	DRSC11083	25833	24470
yellow-b	DRSC03639	98570	66837
rngo (rings lost)	DRSC19903	1.53e5	1.93e5
Prosbeta3 (Proteasome beta3 subunit)	DRSC16801	58257	33483
CG4229	DRSC10407	23873	19863
Dscam4 (Down syndrome cell adhesion molecule 4)	DRSC08911	1.22e5	1.08e5
Dscam4 (Down syndrome cell adhesion molecule 4)	DRSC08913	1.48e5	1.59e5
Dscam4 (Down syndrome cell adhesion molecule 4)	DRSC10031	54060	72553
Dscam4 (Down syndrome cell adhesion molecule 4)	DRSC10329	53773	72470
Dscam4 (Down syndrome cell adhesion molecule 4)	DRSC10765	72873	75750
Nepl12 (Neprilysin-like 12)	DRSC16411	65543	57827
CG31262	DRSC13216	3.13e5	3.36e5
CG42650	DRSC12462	72827	59463
Eaat2 (Excitatory amino acid transporter 2)	DRSC00032	3.22e5	2.72e5
Eaat2 (Excitatory amino acid transporter 2)	DRSC00749	1.23e5	66480
Paip1 (Poly(A) binding protein interacting protein 1)	DRSC07302	44997	54063
ND-PDSW (NADH dehydrogenase (ubiquinone) PDSW subunit)	DRSC00715	1.07e5	69587
LS2 (Large Subunit 2)	DRSC04340	36037	46743
Cp18 (Chorion protein 18)	DRSC11120	82987	75680
Jig	DRSC14974	77910	61820
gammaSnap1 (gamma Soluble NSF attachment protein 1)	DRSC04686	59140	54870
ss (spineless)	DRSC17069	59920	61240
Idh (Isocitrate dehydrogenase)	DRSC10779	44887	33430
CG15729 (retired record)	DRSC19695	3.01e5	2.70e5
Or13a (Odorant receptor 13a)	DRSC20265	3.41e5	3.12e5
stc (shuttle craft)	DRSC03620	76157	58880
CG33290	DRSC11493	62737	68833
Calx (Na/Ca-exchange protein)	DRSC13457	2.50e5	3.28e5
Calx (Na/Ca-exchange protein)	DRSC13459	1.92e5	2.07e5
Calx (Na/Ca-exchange protein)	DRSC16599	56110	70760
CG34244	DRSC09304	76707	78313
JhI-21 (Juvenile hormone Inducible-21)	DRSC02161	1.09e5	74153
